Reference: publication PMC3502493
No constants are given. Whether binding was seen depends on the method and setting.

Target: T1, dysferlin-peptide B3 (15mer, analogous to wildtype) (human immunodeficiency virus type 1 | human)
T1 sequence (peptide, C-terminal amide): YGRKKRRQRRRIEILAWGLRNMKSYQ
Assay: SPR; Biacore 2000 with CM5 sensor chip; recombinant C2E domain harboring DYSF p.L1341P as analyte, tested against peptides B1, B2 and B3; both purified

Question: “recombinant C2E domain of dysferlin containing the DYSF p.L1341P mutation (human) (domain or fragment)” was tested. Which binding did it give?
Answer: no binding
